We go through one compound from patent US20060034889A1, “Biodegradable diblock copolymers having reverse thermal gelation properties and methods of use thereof” (MacroMed, Inc., priority 2004, published 2006).

The solubility is the concentration that dissolves in the medium under given conditions. A low value points to little dissolved substance.

SMILES strings stand for the structures. In brackets after ≈: the same amount, converted by molar mass.

A short description of the data set: physchem. The following applies: water.

As to `CC(=O)O[C@H]1C(=O)[C@@]2(C)[C@H]([C@H](OC(=O)c3ccccc3)[C@]3(O)C[C@H](OC(=O)[C@H](O)[C@@H](NC(=O)c4ccccc4)c4ccccc4)C(C)=C1C3(C)C)[C@]1(OC(C)=O)CO[C@@H]1C[C@@H]2O` [paclitaxel], the solubility was about 4 µg/mL (≈ 4.68 µM).
